Laboratory results as given in PubChem BioAssay AID504834 (National Center for Advancing Translational Sciences (NCATS), 2011).
Hit rate of the full screen: of about 320,000 compounds, about 22,000 (6.9%) were called active. Inconclusive results, whose numbers are uncertain, are shown with a selection of clear calls. Calls follow the shape of the dose curve; as a rule, active = well fitted inhibition curve with a large enough effect; inconclusive = small, poorly fitted or top-dose-only effect, or another doubt; inactive = no such curve, though single readings can be large or run the other way. Potencies of inconclusive entries are doubtful fits and often do not repeat.

Test: Primary qHTS for delayed death inhibitors of the malarial parasite plastid, 96 hour incubation
Settings: P. falciparum luciferase reporter growth; series mostly up to 28.7 µM; activity change, negative = inhibition: at the top concentration
How it was run: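 P. falciparum expressing integrated firefly luciferase grown in erythrocytes (2% hematocrit, 0.05% parasitemia final) with compounds for 96 hours at 37 C, 5% CO2. Growth inhibition read as loss of luminescence after adding luciferase detection reagent.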
% is scaled to controls: 0 for no effect and ±100 for the full control effect; potency is read from the fitted curve at half-maximal effect.

| SMILES | activity change, negative = inhibition | Potency |
| --- | --- | --- |
| COc1ccc(N2C(=O)C(Cl)=C(N3CCCC3)C2=O)cc1 | inactive: 36.6% |  |
| CCOC(=O)c1ccc(Oc2cn[nH]c2-c2ccc(O)cc2O)cc1 |  | inconclusive: 5.22 µM [inhibitor, partial curve] |
| Brc1ccc(C=Nc2ccc(Nc3ccccc3)cc2)s1 |  | active: 13.1 µM |
| O=C(Nc1cc(=O)[nH]c2nc(-c3ccc(Cl)cc3)nn12)c1ccccc1 |  | active: 0.329 µM |
| COC(=O)C1(C)CC1(c1ccccc1)c1ccccc1 (stereo not given) | inactive: -11.4% |  |
| CCOC(=O)C1=C(Nc2ccc(Br)cc2)CC(C)(O)C(C(=O)OCC)C1c1ccccc1 (stereo not given) | inactive: 79.4% |  |
| CCNc1nc(NCC)nc(SCCOc2ccc(C)cc2)n1 |  | inconclusive: 16.5 µM [inhibitor, single point] |
| O=C(N/N=C/C1CC2CCC1C2)c1c[nH]c2ccccc12 (stereo not given) | inactive: -11.2% |  |
| CC(C(=O)Nc1ccccc1-c1ccccc1)N1CCN(S(=O)(=O)c2ccccc2)CC1 (stereo not given) |  | active: 9.28 µM |
| Cc1ccc(C)c(S(=O)(=O)Nc2nc(C)c(C(=O)Nc3ccccc3)s2)c1 |  | active: 0.657 µM |
| CCOC(=O)N1CCC(NC(=O)CS(=O)(=O)Cc2nc(-c3ccccc3C)oc2C)CC1 |  | inconclusive: 18.5 µM [inhibitor, single point] |
| O=S(=O)(Nc1nc2ccccc2nc1Cl)c1ccc(F)cc1 |  | inconclusive: 0.0029 µM [inhibitor, full curve, poor fit] |
| O=C(O)C1C2C=CC(C2)C1C(=O)OCc1ccccc1 (stereo not given) |  | active: 9.28 µM |
| Cc1cccc(Nc2nnc(SC/C(O)=C(\C#N)c3nc4ccccc4[nH]3)s2)c1 |  | inconclusive: 11.7 µM [inhibitor, single point] |
| O=C(NC1CCSC1=O)c1ccc(Cl)cc1 (stereo not given) | inactive: -27.7% |  |
| Cc1c(OC(C)C(=O)N[C@H](C(=O)O)c2ccccc2)ccc2c3c(c(=O)oc12)CCCC3 (stereo not given in full) |  | inconclusive: 18.5 µM [inhibitor, single point] |
| COC(=O)c1cc(NC(=O)c2cc(-c3ccccc3Cl)oc2C(F)(F)F)ccc1N1CCOCC1 |  | inconclusive: 10.4 µM [inhibitor, partial curve] |
| CCN(CC)S(=O)(=O)c1cc(NC(=O)COc2ccc(C#N)cc2OC)ccc1C |  | inconclusive: 5.86 µM [inhibitor, partial curve] |
| Cc1ccc(C)c(Oc2cc(NC(=O)CCCn3nc(C)c([N+](=O)[O-])c3C)cc([N+](=O)[O-])c2)c1 |  | inconclusive: 0.329 µM [inhibitor, full curve, poor fit] |
| COCCOC(=O)C1=C(C)NC2=C(C(=O)CCC2)C1c1ccc(N(C)C)cc1 (stereo not given) |  | inconclusive: 10.4 µM [inhibitor, partial curve, poor fit] |

Shown in CSV form: entries from further up.
SMILES,"activity change, negative = inhibition",Potency
COc1ccc(N2C(=O)C(Cl)=C(N3CCCC3)C2=O)cc1,inactive: 36.6%,
Cc1cccc(Nc2nnc(SC/C(O)=C(\C#N)c3nc4ccccc4[nH]3)s2)c1,,"inconclusive: 11.7 µM [inhibitor, single point]"
